Out of some 330,000 compounds screened, about 7,700 (2.3%) were called active. Inconclusive means that the source gave no clear call. Such entries were picked first, then a sample of the others. The call rests on the fitted dose curve; in most records, active means well fitted inhibition curve with a large enough effect; inconclusive means small, poorly fitted or top-dose-only effect, or effect the other way; inactive means flat fitted curve, though single readings scatter. Potencies of inconclusive entries are doubtful fits and often do not repeat.
Assay: qHTS screen for small molecules that inhibit ELG1-dependent DNA repair in human embryonic kidney (HEK293T) cells expressing luciferase-tagged ELG1; further: nearly all actives have a fitted effect of over 55% in size
Conditions: HEK293T ELG1-luciferase reporter, luminescence, 16 h, DNA damage induced by 5-fluorouridine; activity change, negative = inhibition: at 46.1 µM (top of the series)
Summary of the method: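 HEK293T cells expressing luciferase-tagged ELG1 (2,000/well) received 5-Fluorouridine plus compound or DMSO for 16 hr at 37 °C. Luciferase was read by ONE-Glo luminescence after 30 min at room temperature.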
On the % scale 0 is the no-effect control and ±100 the full control effect; potency means the concentration at half of the fitted maximal effect.

SMILES | activity change, negative = inhibition | Potency
COc1ccc(CCNC(=O)COC(=O)CCC(=O)c2ccc(F)cc2)cc1 | inactive: 6.76% | 
O=C(O)c1cn(C2CC2)c2cc(N3CCN(S(=O)(=O)c4ccc5c(c4)OCCO5)CC3)c(F)cc2c1=O |  | inconclusive: 16.4 µM [inhibitor, partial curve]
COc1cc(NC(=O)c2cccs2)c(OC)cc1NC(=O)CCC(=O)Nc1ccc(C)cc1 | inactive: -7.23% | 
COC(=O)c1ccc(NC(=S)NCC2CC2)cc1 | inactive: 3.09% | 
Cn1nc(C(F)(F)F)c(-c2ccc(Br)cc2)c1NC(=O)Nc1ccc(F)cc1F |  | inconclusive: 18.3 µM [inhibitor, single point]
Cc1ccc(C(=O)/C=C/c2cn(CN3CCN(C)CC3)c3ccccc23)cc1 |  | inconclusive: 13 µM [activator, partial curve]
CCCN(CC(=O)Nc1cc(C)on1)CC(=O)Nc1ccc(F)c(F)c1F | inactive: -29.6% | 
CC(On1c(-c2ccccc2)nc2ccc(Cl)cc21)C(=O)O (stereo not given) |  | inconclusive: 25.9 µM [activator, partial curve]
O=C(NCCN1CCCC1)c1ccc2c(c1)N(Cc1ccc(F)cc1)C(=O)c1ccccc1S2=O (stereo not given) |  | inconclusive: 18.4 µM [activator, partial curve, poor fit]
COc1ccc(CCC(=O)OCC(=O)NCc2ccc3c(c2)OCO3)cc1 | inactive: 15.4% | 
CNC[C@H]1Oc2c(NS(=O)(=O)c3cccs3)cccc2C(=O)N([C@H](C)CO)C[C@@H]1C | inactive: 16.7% | 
O=C(Nc1cccnc1)c1sc(Nc2ccccc2)nc1-c1ccccc1 |  | inconclusive: 20.6 µM [inhibitor, single point]
Cc1cc(C)n(-c2nc(C)nc(NCc3ccccc3)n2)n1 |  | inconclusive: 18.4 µM [inhibitor, single point]
COc1ccc(N2C(=O)CC(N(CCc3ccccc3)C(=O)/C=C/C(=O)O)C2=O)cc1 (stereo not given) |  | inconclusive: 25.9 µM [inhibitor, single point]
Cc1ccc2oc3c(c(=O)c2c1)C(c1cccc(O)c1)N(c1ccccn1)C3=O (stereo not given) |  | active: 16.4 µM
O=C(Nc1ccc(Cl)cc1)N1CCN(c2ccccc2)CC1 | inactive: -7.48% | 
Cc1cccc(C)c1NC(=S)N/N=C/c1ccc(OCCC(C)C)cc1 |  | inconclusive: 18.4 µM [inhibitor, single point]
COc1ccc(/C=N/Nc2c(Cl)cc(Cl)cc2Cl)cc1CN1CCOCC1 |  | inconclusive: 25.9 µM [inhibitor, partial curve]
C[C@]12c3[nH]c4cc(-c5ccco5)ccc4c3CCN1C(=O)[C@@H](CC(=O)NCC13CC4CC(CC(C4)C1)C3)C[C@@H]2C(=O)N1CCCCC1 | inactive: 0.853% | 
CCN(CC)c1c([N+](=O)[O-])c(=O)oc2ccccc12 | inactive: 7.39% | 
COc1ccc(-c2cc(=Nc3c(C)n(C)n(-c4ccccc4)c3=O)c3ccccc3o2)cc1 |  | inconclusive: 14.6 µM [activator, partial curve]
CN(C(=O)COC(=O)c1cc(NS(=O)(=O)c2cc([N+](=O)[O-])ccc2Cl)ccc1O)C1CCCCC1 | inactive: -14.2% | 
COCCCNCCC(CCC(C)C)c1ccc2c(c1)OCO2 (stereo not given) |  | inconclusive: 9.2 µM [inhibitor, partial curve, poor fit]
CCOC(=O)CSc1nc2cccnc2n1C | inactive: -4.18% | 

SMILES | activity change, negative = inhibition | Potency
CCOC(=O)C1CCN(S(=O)(=O)c2cccc(-c3cn4cc(C)ccc4n3)c2)CC1 |  | inconclusive: 14.6 µM [inhibitor, single point]
Clc1ccc2noc(-c3ccccc3)c2c1 |  | inconclusive: 18.4 µM [inhibitor, single point]
CC(=NCCc1ccccc1)C1=C(O)CSC1=O |  | inconclusive: 23.1 µM [activator, partial curve]
CCc1c(C)nc2ncnn2c1NCCc1ccc(Cl)cc1 |  | inconclusive: 2.91 µM [inhibitor, full curve]
CCC(C)(C)NC(=O)C(c1cccn1C)N(C(=O)Cn1nnc2ccccc21)c1ccc(OC)cc1OC (stereo not given) | inactive: -1.19% | 
Cn1c(=O)[nH]c(=O)c2c1[nH]c(=S)n2Cc1ccccc1 |  | inconclusive: 32.6 µM [activator, partial curve, poor fit]
CC(Nc1cccc2ccccc12)C(=O)N/N=C/c1ccc([N+](=O)[O-])cc1 (stereo not given) | inactive: -21.3% | 
Cc1cccc(NC(=S)N/N=C/c2ccc(Cl)c([N+](=O)[O-])c2)c1 | inactive: 11.5% | 
CCCc1ccc(C(=O)NC(=O)c2ccccc2O)cc1 |  | inconclusive: 9.2 µM [activator, partial curve]
COc1ccc(-c2cn3cc(C(=O)NN)ccc3n2)cc1 |  | inconclusive: 11.6 µM [activator, partial curve]
O=C(CSc1nnc(-c2ccc(OC(F)F)cc2)o1)N1CCOCC1 |  | inconclusive: 18.4 µM [activator, partial curve]
CCCNC(=O)C1CC(c2cccc(F)c2)=NO1 (stereo not given) |  | inconclusive: 25.9 µM [activator, partial curve, poor fit]
O=C(CNC(=O)C(c1ccccc1)c1ccccc1)OCC(=O)c1cccs1 | inactive: 14.2% | 
CCC1CCCCN1CCCNC(=O)CN1C(=O)CSc2ccc(S(=O)(=O)N3CCOCC3)cc21 (stereo not given) |  | inconclusive: 20.6 µM [activator, partial curve, poor fit]
O=C(NC1CCSc2ccccc21)c1ccccc1F (stereo not given) |  | inconclusive: 29.1 µM [activator, single point]
Cc1cc2c(=O)n(C)c(SCC(=O)Nc3ccccc3)nc2s1 |  | inconclusive: 32.6 µM [inhibitor, single point]
CCN(CCCNS(=O)(=O)c1ccc2c(c1)CCN2C(C)=O)c1cccc(C)c1 |  | inconclusive: 7.31 µM [inhibitor, partial curve, poor fit]
COc1ccc(-c2nn(C)c(=O)c3ccccc23)cc1CNS(C)(=O)=O |  | inconclusive: 23.1 µM [activator, partial curve, poor fit]
C/C(=C\C(=O)c1ccccc1)NNc1nc2ccccc2s1 |  | inconclusive: 16.4 µM [activator, single point]
CS(=O)(=O)N(CC(=O)NCc1ccc2c(c1)OCO2)c1ccc(Cl)cc1 |  | inconclusive: 23.1 µM [activator, partial curve, poor fit]
CC(NCC1(N2CCOCC2)CCCCC1)C(=O)N1CCc2ccccc21 (stereo not given) | inactive: -5.27% | 
O=C(O)C1Cc2ccccc2CN1C(=O)COc1ccc(Br)cc1 (stereo not given) | inactive: -8.29% | 
CCCN=C(C)c1c(-c2ccccc2)[nH]n(-c2nc3ccccc3s2)c1=O |  | inconclusive: 20.6 µM [inhibitor, partial curve, poor fit]
N#Cc1cc2c(nc1SCC(=O)N1CCOCC1)CCCCC2 |  | inconclusive: 8.2 µM [activator, partial curve]

Part of the list above, as labelled records.
CC(=NCCc1ccccc1)C1=C(O)CSC1=O
  Potency: inconclusive: 23.1 µM [activator, partial curve]
CCc1c(C)nc2ncnn2c1NCCc1ccc(Cl)cc1
  Potency: inconclusive: 2.91 µM [inhibitor, full curve]

Later entries:

SMILES | activity change, negative = inhibition | Potency
CCCS/C(N)=N/N=C/c1ccccc1O |  | inconclusive: 14.6 µM [activator, partial curve]
CCn1c(/C=C/Nc2ccccc2)[n+](CC)c2ccc(C(=O)OCC(F)(F)F)cc21 |  | inconclusive: 25.9 µM [inhibitor, partial curve, poor fit]
COc1ccc(NS(=O)(=O)c2cc(OCC(N)=O)c(C)cc2Cl)cc1 | inactive: 0.265% | 
CCCOC(=O)c1ccc(Oc2cn[nH]c2-c2ccc(OCC)cc2O)cc1 |  | inconclusive: 16.4 µM [inhibitor, partial curve, poor fit]
O=C(Nc1ccc(Cl)cc1)/C(=C/c1ccc([N+](=O)[O-])cc1)c1nc2ccccc2s1 |  | inconclusive: 4.11 µM [inhibitor, full curve, poor fit]
Cc1nc(S/C(=C\c2ccc(OCc3ccccc3Cl)cc2)C(=O)O)n[nH]1 |  | inconclusive: 20.6 µM [activator, partial curve, poor fit]
CCN(C(=O)CN1C(=O)S/C(=C\C=C\c2ccccc2)C1=O)C1CCS(=O)(=O)C1 (stereo not given) | inactive: 0.948% | 
Cc1ccc(CSc2ccc(S(=O)(=O)N3CCOCC3)cn2)cc1 | inactive: 13.6% | 
COc1ccc(S(=O)(=O)NCCc2c(C)nn(C)c2Oc2ccccc2)cc1 | inactive: -30% | 
Cn1c2c(c(=O)n(C)c1=O)C(CC(=O)Nc1ccc(F)cc1)C(=O)N2 (stereo not given) | inactive: 22.8% | 
CCC1Sc2ccc(S(=O)(=O)CCC(=O)Nc3c(Cl)cc(OC)cc3OC)cc2NC1=O (stereo not given) | inactive: -10.3% | 
O=C(Nc1ccn(-c2ccccc2)n1)c1ccc(Cl)cc1 |  | inconclusive: 16.4 µM [activator, single point]
O=C(Nc1ccc(Cl)cn1)C1CCCN(c2ncnc3c2nc2n3CCCCC2)C1 (stereo not given) |  | inconclusive: 11.6 µM [inhibitor, partial curve, poor fit]
CSc1ccc(CN(C)CC(=O)Nc2c(F)cccc2F)cc1 |  | inconclusive: 23.1 µM [inhibitor, single point]
CCC(c1nnnn1Cc1ccco1)N(CCc1ccccc1)Cc1cc2cc(C)ccc2[nH]c1=O (stereo not given) |  | inconclusive: 23.1 µM [inhibitor, single point]
COc1ccc(-c2csc(NC(=O)COc3ccc(N(C)S(=O)(=O)c4ccc(C)cc4)cc3)n2)cc1 |  | active: 7.31 µM
COc1ccc(N2CCN(CCCNC(=O)C(=O)c3c(C)[nH]c4ccccc34)CC2)cc1 | inactive: 4.91% | 
COc1ccc(NC(=O)CCS(=O)(=O)c2ccc(OC)cc2)cc1 | inactive: -2.44% | 
CN(Cc1cccc(F)c1)C(=O)Cc1ccc(S(=O)(=O)N2CCOCC2)s1 | inactive: 22.5% | 
Nc1ccc2oc3ccc(N)cc3c(=O)c2c1 |  | inconclusive: 16.4 µM [activator, partial curve]
O=C(CCC(=O)N1CCOc2ccccc21)Nc1ccc(F)cc1F | inactive: 5.38% | 
Cc1cccc(N2CCN(C(=O)CCS(=O)(=O)c3ccc(Br)cc3)CC2C)c1 (stereo not given) |  | inconclusive: 25.9 µM [inhibitor, single point]

Structural class, the entries above containing a furan ring, fused or not (two)
SMILES | activity change, negative = inhibition | Potency
C[C@]12c3[nH]c4cc(-c5ccco5)ccc4c3CCN1C(=O)[C@@H](CC(=O)NCC13CC4CC(CC(C4)C1)C3)C[C@@H]2C(=O)N1CCCCC1 | inactive: 0.853% | 
CCC(c1nnnn1Cc1ccco1)N(CCc1ccccc1)Cc1cc2cc(C)ccc2[nH]c1=O (stereo not given) |  | inconclusive: 23.1 µM [inhibitor, single point]

Source: PubChem BioAssay AID504467 (National Center for Advancing Translational Sciences (NCATS), 2011)
